In all, about 33,000 sequences were measured (“E-score (-0.5 to 0.5)”: median about -0.0034, highest 2% from about 0.25 on). Some of the results follow.

This note sets out measurements from the supplement of paper PMC3334620.

This assay concerns the target T1, Yap3 (UniProt P38749).
T1 sequence: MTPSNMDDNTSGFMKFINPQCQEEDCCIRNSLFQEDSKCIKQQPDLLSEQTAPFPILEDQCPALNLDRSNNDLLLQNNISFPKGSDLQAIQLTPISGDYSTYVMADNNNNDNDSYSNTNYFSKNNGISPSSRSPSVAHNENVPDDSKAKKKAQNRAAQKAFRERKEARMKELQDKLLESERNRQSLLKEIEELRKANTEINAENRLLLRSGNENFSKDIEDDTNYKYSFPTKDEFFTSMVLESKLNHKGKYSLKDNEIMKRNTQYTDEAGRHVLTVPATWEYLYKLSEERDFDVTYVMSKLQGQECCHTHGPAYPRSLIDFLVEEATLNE
Put plainly: PBM E-score (8-mer binding enrichment) (E-score (-0.5 to 0.5)); higher = stronger / more preferred TF binding. Particulars: protein concentration: 100 nM; construct: GST-full length. Here is the method: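 Universal 'all 10-mer' protein binding microarrays (Agilent AMADID 015681) probed with GST-tagged S. cerevisiae TFs (full-length or DBD) made by in vitro transcription/translation (PURExpress), about 100-200 nM. Bound TF was detected with fluorescent anti-GST. Each ungapped 8-mer (which stands for itself and its reverse complement) is scored by the PBM enrichment score (E-score), a modified Wilcoxon-Mann-Whitney statistic from -0.5 to +0.5, computed with the Universal PBM Analysis Suite. Scale: above 0.35 generally sequence-specific binding.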
For CCCGACAC, the “PBM E-score” value is -0.222.

For ATACTGCG, the “PBM E-score” value was -0.0971.

For the sequence AGTCACAA, the “PBM E-score” value was determined as 0.208.

In the case of CATGGTCC, the “PBM E-score” value is -0.102.

Take ATTGTCGG: the “PBM E-score” value came out at 0.0578.

Regarding AACCTTTC, the “PBM E-score” value is 0.0269.

For the sequence GCGTGAGA, the “PBM E-score” value was determined as 0.0548.

Take ATTTTTGC: the “PBM E-score” value stood at 0.123.

For CTAGAGCC, the “PBM E-score” value was -0.212.

For CCACAACC, the “PBM E-score” value came out at 0.0507.

For AACCAGCA, the “PBM E-score” value was -0.021.

With AAGAGAGT, the “PBM E-score” value was 0.0295.

In the case of CGGAAAAG, the “PBM E-score” value came to 0.0315.

CAAGATAG: the “PBM E-score” value is -0.0364.

Regarding GGTACAGA, the “PBM E-score” value is -0.0117.

With GATGCATA, the “PBM E-score” value is -0.00781.

On to ACTGGTGA, for which the “PBM E-score” value is -0.0583.

For CCCCCCCA, the “PBM E-score” value is -0.394.

For CCTTAATA, the “PBM E-score” value stood at 0.042.

On to CACTCTCC, for which the “PBM E-score” value is -0.021.

Consider GACCGCGA, for which the “PBM E-score” value is -0.171.

As to CCACTCAC, the “PBM E-score” value is 0.0262.

In the case of GCGATTAC, the “PBM E-score” value was 0.0199.

As to CATCCTGC, the “PBM E-score” value was -0.0711.

As for GCTAGAAA, the “PBM E-score” value was 0.193.

For CCAGACCA, the “PBM E-score” value is -0.0634.

Turning to CTCACACA, the “PBM E-score” value is -0.00237.

Consider GAATGTCA, for which the “PBM E-score” value was -0.0215.

Take AGAATTAC: the “PBM E-score” value came to 0.195.

For the sequence AAGAATTG, the “PBM E-score” value was determined as 0.171.

In the case of GATGCGCC, the “PBM E-score” value amounted to 0.0212.

In the case of CAACTGGA, the “PBM E-score” value is -0.097.

As to TGAGCCAA, the “PBM E-score” value is 0.0518.

As to GACACACC, the “PBM E-score” value came to 0.155.

Take CTATGCAC: the “PBM E-score” value was -0.0447.

Consider ACGCTAGC, for which the “PBM E-score” value was -0.251.

With ATGGGAGC, the “PBM E-score” value is 0.00648.

Regarding TAGCCATA, the “PBM E-score” value was -0.0876.

For ATCTCCCC, the “PBM E-score” value was -0.205.

Regarding AGTGCATA, the “PBM E-score” value is -0.0677.

As to ATGGGTCA, the “PBM E-score” value was -0.0716.

As for ACAAATTA, the “PBM E-score” value stood at 0.242.

With CGTTCTCA, the “PBM E-score” value is -0.0074.

On to CCCTTAGA, for which the “PBM E-score” value is -0.0783.

As for AATGTGTC, the “PBM E-score” value turned out to be 0.107.

For the sequence CCATCCCA, the “PBM E-score” value is -0.131.

For the sequence TGACACAA, the “PBM E-score” value stood at 0.153.

As for CAGAGAGC, the “PBM E-score” value was -0.176.

As for AACGGGCC, the “PBM E-score” value is -0.145.

For ACTACGCA, the “PBM E-score” value was -0.0192.

As for CAACCATC, the “PBM E-score” value was -0.0758.

Turning to GGTTCGAC, the “PBM E-score” value was determined as 0.00247.

For ACAGATTC, the “PBM E-score” value came out at 0.102.

As for GCACCGCA, the “PBM E-score” value is -0.148.

As to AAAGAGTC, the “PBM E-score” value is -0.136.

Regarding AAGTGTCT, the “PBM E-score” value was -0.0317.

In the case of ATTTACAG, the “PBM E-score” value came to 0.148.

On to GCCGCCCC, for which the “PBM E-score” value is -0.152.

AAGGAATT: the “PBM E-score” value was found to be 0.0383.

Regarding ACTGCAGC, the “PBM E-score” value was -0.0363.

Consider ATCGGCAA, for which the “PBM E-score” value was -0.0735.

As to ACCGCCAC, the “PBM E-score” value was -0.122.

On to GTACATAA, for which the “PBM E-score” value came to 0.135.

For the sequence TGTCGACA, the “PBM E-score” value is -0.033.

Regarding AGGTGAAG, the “PBM E-score” value stood at 0.0344.

Regarding ACCCTGGG, the “PBM E-score” value was -0.302.

For AAACTCGG, the “PBM E-score” value stood at 0.0843.

ACCTCCTG: the “PBM E-score” value is -0.0595.

CATCAGCC: the “PBM E-score” value was -0.0344.

On to AACGCGGG, for which the “PBM E-score” value is 0.0467.

Turning to AATGAAAC, the “PBM E-score” value turned out to be 0.235.

Take CACCGAGG: the “PBM E-score” value was -0.178.

GATCAAGA: the “PBM E-score” value is -0.0818.

In the case of GGACTGGA, the “PBM E-score” value was -0.217.

As for AGGCTATA, the “PBM E-score” value is -0.0558.

As for CATGATCA, the “PBM E-score” value came out at 0.0976.

With TAAGAGTA, the “PBM E-score” value was found to be 0.0949.

Regarding CCAGAGGC, the “PBM E-score” value is -0.131.

Turning to CTGCATTA, the “PBM E-score” value is -0.0676.

For CGACGCCC, the “PBM E-score” value is -0.0838.

As to CCGCTTAA, the “PBM E-score” value is 0.0874.

ACCTGGGG: the “PBM E-score” value was -0.308.

On to GCGATCCA, for which the “PBM E-score” value was -0.00197.

Consider AGACGCCA, for which the “PBM E-score” value is -0.129.

Turning to TACCTTCA, the “PBM E-score” value was 0.0161.

Regarding CCAGCCAG, the “PBM E-score” value is -0.213.
